Consider 48 compounds from article PMC12040169 (PLOS Biology, 2025).

This is one part of the list.

In the experiment the test system is T1, CTL2-GFP (C. trachomatis L2/434/Bu, GFP-expressing).
T1 construct: L2/434/Bu, GFP-expressing
On the set-up: species or system HeLa; Intracellular C. trachomatis growth in HeLa cells, bulk GFP fluorescence relative to DMSO. To be noted: bulk GFP, single well; 28.5 h, 10 µM; inhibitor.
For `O=S(=O)(c1ccccc1)c1ccc(N2CCNCC2)cc1` [CBK018452], the “% of control remaining” value is on record as 126.381%.
Consider `N#Cc1cccc(CSc2nnc(Nc3ccccc3)n2-c2ccccc2)c1` [CBK266040], for which the “% of control remaining” value is 86.0345%.
In the case of `Nc1cc(=O)[nH]c(=O)n1CCc1c[nH]c2ccccc12` [CBK288190] it was 140.755%; in that of `Nc1cccc(-c2cn([C@H]3C[C@@H](O)[C@@H](CO)O3)c(=O)[nH]c2=O)c1` [CBK201262], 119.567%.
The result for `c1coc(-c2ccc3c(c2)COC2(CCN(CCc4ccc5c(c4)OCO5)CC2)O3)c1` [CBK061057] reads 146.04%; that for `CCOC(=O)N1CCC(NS(=O)(=O)c2cccc3cccnc23)CC1` [CBK045453], 107.467%; that for `Cc1n[nH]cc1CN(C)c1cc([C@H]2C[C@@H](N)C2)nc(C2CC2)n1` [CBK307544], 61.5354%.
In the case of `Cc1cc(C)n(CC(=O)N2CCNC(=O)C2c2ccccc2Cl)n1` (stereo not drawn) [CBK306421] it was 127.1%.
Take `COc1ccc2c(c1)nc1n2CCC1O` (stereo not drawn) [CBK115449]: the “% of control remaining” value amounted to 105.64%.
The result for `O=C(N/N=C\c1ccc(-c2ccc(Cl)c(Cl)c2)o1)C1COc2cc3ccccc3cc2O1` (stereo not drawn) [CBK262834] reads 114.032%; that for `Cc1ccc2nc(-c3ccccc3)c(CC(=O)O)c(C(=O)O)c2c1` [CBK265128], 126.341%; that for `O=C(Nc1ccc2c(c1)OCO2)C1CCN(S(=O)(=O)c2ccc(Oc3ccccc3)cc2)CC1` [CBK269648], 116.953%.
In the case of `COc1cc(C2C(C(=O)c3cccs3)=C(O)C(=O)N2Cc2cccnc2)cc(OC)c1OC` (stereo not drawn) [CBK264874] it was 114.603%.
Regarding `CC(=O)Nc1ccc(S(=O)(=O)Nc2ccc(C(=O)N3CCN(C)CC3)cc2)cc1` [CBK050406], the “% of control remaining” value is recorded as 148.281%.
The result for `COC(=O)Nc1ccc(S(=O)(=O)Oc2ccc(C)cc2-n2nc3ccccc3n2)cc1` [CBK262183] reads 98.5885%; that for `COc1ccc2[nH]cc(CCNC(=O)CCC(=O)O)c2c1` [CBK116605], 125.505%; that for `O=C(c1ccco1)N1CCN(c2ccc(/C=C/c3ccccc3)cn2)CC1` [CBK037701], 71.0727%.
The result for `Cc1cc(Br)ccc1C(=O)Nc1ccc2cc[nH]c2c1` [CBK160046] reads 129.688%; that for `C=CCn1c(-c2sc(NC(=O)c3[nH]c4c(c3C)C(=O)CC(C)(C)C4)nc2C)n[nH]c1=S` [CBK297757], 128.767%; that for `COc1ccc(-c2nc(O)cc(C(F)(F)F)n2)cc1` [CBK003515], 136.667%.
In the case of `CCn1c2cc(C)sc2c2cnn(CC(=O)N3CCCC3)c(=O)c21` [CBK284168] it was 97.1674%; in that of `CCc1cc(C(=O)OC)c(NC(=O)CC2NCCNC2=O)s1` (stereo not drawn) [CBK266990], 179.396%.
Consider `CC(Sc1nc2ccc(F)cc2c(=O)[nH]1)C(=O)N1CCOCC1` (stereo not drawn) [CBK305958], for which the “% of control remaining” value was determined as 120.48%.
The result for `COC(=O)CN1N=C(C(C)(C)C)Cn2c(cc3sccc32)C1=O` [CBK284177] reads 98.4324%.
Turning to `CC(C)NC(=O)NC[C@H]1C[C@@H]2CC[N@]1C[C@@H]2CN1CCN(c2ccccn2)CC1` [CBK289112], the “% of control remaining” value is recorded as 102.374%.
The result for `CN(C)C(=O)COc1cccc(Nc2nc(Br)cn3ccnc23)c1` [CBK037989] reads 233.62%; that for `COc1ccccc1NC(=O)c1c(NC(=O)c2cc([N+](=O)[O-])ccc2Cl)sc2c1CCCC2` [CBK263827], 120.418%.
In the case of `Cn1c(=O)n(C)c2cc(CNc3ccc(N4CCOCC4)c(C(=O)O)c3)ccc21` [CBK269463] it was 134.226%.
The result for `COC(=O)CNC(=O)c1nc(SC)ncc1Cl` [CBK057651] reads 107.181%; that for `COc1ccc(Cl)cc1NC(=O)CC(C)(C)CC(=O)O` [CBK001236], 119.119%; that for `COc1ccc(Oc2cc(Cl)nc(N)n2)cc1` [CBK261771], 107.965%.
Consider `O=C(O)c1oc2ccccc2c1CN1CCN(c2ccccc2)CC1` [CBK286948], for which the “% of control remaining” value was 136.137%.
The result for `COc1cc(CNc2cc(-c3ccc(N4CCOCC4)cc3)ncn2)cc(OC)c1OC` [CBK091174] reads 174.919%; that for `COc1ccc(F)cc1-c1cccc(CC2(C(=O)NCc3cccs3)CCOCC2)c1` [CBK285543], 109.581%.
In the case of `Cc1ccc(NC(=O)c2cncc(-c3ccc(C(=O)N4CCOCC4)cc3)c2)c(O)c1` [CBK160208] it was 135.983%.
The result for `Cc1ccc(-c2nn3c(C)nnc3s2)cc1NC(=O)c1ccc([N+](=O)[O-])o1` [CBK267247] reads 113.716%.
Consider `COc1cc2c(cc1OC)CN(C(=O)CSc1nc(-c3cccnc3)ccc1C#N)CC2` [CBK267464], for which the “% of control remaining” value worked out at 138.89%.
With `Cn1c(=O)c(-c2ccccc2)nc2ccccc21` [CBK016192], the “% of control remaining” value is recorded as 115.345%.
In the case of `Cc1cc(N2CCCC2)c(F)cc1CN1CCC(O)C(C)C1` (stereo not drawn) [CBK282963] it was 153.289%; in that of `CC1CCCN(C(=O)c2cc(-c3ccccn3)n[nH]2)C1C` (stereo not drawn) [CBK283146], 126.364%.
In the case of `CS(=O)(=O)N(CC(=O)Nc1ccc2c(c1)OCO2)c1ccc(Oc2ccccc2)cc1` [CBK263989] it was 120.666%; in that of `CN(C)CCCNC(=O)C1CCCCN1S(=O)(=O)c1ccc(C(C)(C)C)cc1` (stereo not drawn) [CBK200070], 133.393%; in that of `CC(C)NC(=O)CN1CCC(Oc2nccnc2OCc2ccc(Cl)c(Cl)c2)CC1` [CBK153791], 96.6276%.
The result for `C/C(=C\c1ccccc1)CN1CCC(C(=O)N2CCN(Cc3ccc4c(c3)OCO4)CC2)CC1` [CBK264327] reads 130.149%; that for `COc1cc(OC)nc(C(NC(=O)C2CCN(CCc3c[nH]c4ccccc34)CC2)c2ccccc2C)n1` (stereo not drawn) [CBK148101], 83.0397%.
In the case of `COc1cc(OC)nc(CN2C(=O)C3(CC(=O)N(CCCN4C(=O)c5ccccc5C4=O)C3=O)c3cc(C)ccc32)n1` (stereo not drawn) [CBK075992], the “% of control remaining” value is 126.213%.
In the case of `Cc1cc2c(cc1Cl)C(=O)CC1(CCNCC1)O2` [CBK282715] it was 142.664%; in that of `CN(C)CCn1c2c(c3ccccc31)CCCn1cnnc1-2` [CBK267712C], 128.869%.
